For assay [1], the target named is T1, EGFP-IFT88 (full-length) (human) (UniProt Q13099).
T1 sequence: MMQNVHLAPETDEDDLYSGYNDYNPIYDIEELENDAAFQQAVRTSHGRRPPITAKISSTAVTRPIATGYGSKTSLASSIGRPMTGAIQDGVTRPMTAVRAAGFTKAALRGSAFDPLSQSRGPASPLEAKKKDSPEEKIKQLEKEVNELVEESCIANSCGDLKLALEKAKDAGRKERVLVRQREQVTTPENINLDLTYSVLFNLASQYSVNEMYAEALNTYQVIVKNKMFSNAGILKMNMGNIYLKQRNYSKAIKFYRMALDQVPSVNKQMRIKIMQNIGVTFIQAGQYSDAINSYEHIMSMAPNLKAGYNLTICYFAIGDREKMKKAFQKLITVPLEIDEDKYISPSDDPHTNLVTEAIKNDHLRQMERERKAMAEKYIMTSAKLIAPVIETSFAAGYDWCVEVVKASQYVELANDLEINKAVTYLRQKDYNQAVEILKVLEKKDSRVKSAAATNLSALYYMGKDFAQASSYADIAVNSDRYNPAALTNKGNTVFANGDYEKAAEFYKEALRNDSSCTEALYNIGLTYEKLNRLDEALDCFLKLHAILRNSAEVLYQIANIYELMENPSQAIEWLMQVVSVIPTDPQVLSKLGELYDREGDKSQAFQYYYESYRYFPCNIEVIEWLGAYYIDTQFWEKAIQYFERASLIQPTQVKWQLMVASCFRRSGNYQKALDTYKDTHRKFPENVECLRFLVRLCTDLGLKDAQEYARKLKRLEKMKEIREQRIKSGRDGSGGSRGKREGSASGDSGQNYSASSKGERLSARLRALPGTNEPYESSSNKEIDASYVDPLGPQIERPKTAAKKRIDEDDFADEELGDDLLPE
As to the kind of experiment: pull-down; GFP-Trap_A pulldown of mixed lysates of cells transfected with myc-SDCCAG3 or GFP fusion proteins, 2 h at 4 °C; 50mM HEPES pH 7.5, 150mM NaCl, 1% Triton X-100; western blot with anti-myc and anti-GFP. In general terms: In western blotting, separated proteins are transferred to a membrane and probed.

By UniProt entry, the sequences of proteins in these tests, tags left out. Where a name states a change or a piece, a line headed by the entry shows the natural chain unless it says otherwise.
UniProt Q96C92: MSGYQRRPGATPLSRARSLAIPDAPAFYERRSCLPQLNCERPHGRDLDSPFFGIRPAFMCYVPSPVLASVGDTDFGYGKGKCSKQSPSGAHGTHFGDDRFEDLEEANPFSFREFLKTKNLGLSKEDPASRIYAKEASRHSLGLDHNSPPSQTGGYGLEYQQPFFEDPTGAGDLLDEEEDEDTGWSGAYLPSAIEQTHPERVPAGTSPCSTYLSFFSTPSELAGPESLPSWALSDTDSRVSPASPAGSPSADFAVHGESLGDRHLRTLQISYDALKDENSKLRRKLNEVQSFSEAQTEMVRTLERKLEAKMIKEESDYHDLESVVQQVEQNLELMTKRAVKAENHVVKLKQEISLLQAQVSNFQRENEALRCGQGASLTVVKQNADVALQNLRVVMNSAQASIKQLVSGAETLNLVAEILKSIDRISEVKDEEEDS

Assay [2] addresses GST-SDCCAG3 (full-length) (human) (UniProt Q96C92). The experiment in a line: pull-down; GST-fusion proteins on glutathione agarose 4B beads incubated with lysates of transfected HeLa, Cos7 or HEK293 cells, 3 h at 4 °C, 1 x PBS, 0.5% Triton X-100; western blot with anti-GFP; only the target purified.
Assay [3] deals with GST-SDCCAG3 1-100aa (human) (UniProt Q96C92). The assay is described as above.
Assay [4] concerns the target GST-fusion protein of SDCCAG3 lacking amino acids 1-100 (human) (UniProt Q96C92). The assay is described as above.

Results are given in words; binding and its absence hold for the method and conditions named. In cells and extracts the contact can be indirect. A result given as binding can be weak or reduced; the word gives no strength. Where a sequence is shown, tags or fusion partners need not be part of it.

For the molecule Myc-SDCCAG3 (from UniProt Q96C92-2), in assay [1], the binding entry is listed as “binds”.

B1: EGFP-IFT88Δaa400-550 (protein, UniProt Q13099)
chain: MMQNVHLAPETDEDDLYSGYNDYNPIYDIEELENDAAFQQAVRTSHGRRPPITAKISSTAVTRPIATGYGSKTSLASSIGRPMTGAIQDGVTRPMTAVRAAGFTKAALRGSAFDPLSQSRGPASPLEAKKKDSPEEKIKQLEKEVNELVEESCIANSCGDLKLALEKAKDAGRKERVLVRQREQVTTPENINLDLTYSVLFNLASQYSVNEMYAEALNTYQVIVKNKMFSNAGILKMNMGNIYLKQRNYSKAIKFYRMALDQVPSVNKQMRIKIMQNIGVTFIQAGQYSDAINSYEHIMSMAPNLKAGYNLTICYFAIGDREKMKKAFQKLITVPLEIDEDKYISPSDDPHTNLVTEAIKNDHLRQMERERKAMAEKYIMTSAKLIAPVIETSFAAGYDSAEVLYQIANIYELMENPSQAIEWLMQVVSVIPTDPQVLSKLGELYDREGDKSQAFQYYYESYRYFPCNIEVIEWLGAYYIDTQFWEKAIQYFERASLIQPTQVKWQLMVASCFRRSGNYQKALDTYKDTHRKFPENVECLRFLVRLCTDLGLKDAQEYARKLKRLEKMKEIREQRIKSGRDGSGGSRGKREGSASGDSGQNYSASSKGERLSARLRALPGTNEPYESSSNKEIDASYVDPLGPQIERPKTAAKKRIDEDDFADEELGDDLLPE
As to B1, the binding entry in assay [2] and in assay [3] was “no binding” throughout.

B2: EGFP-IFT88 aa400-550 (domain or fragment, UniProt Q13099 400-550)
chain: WCVEVVKASQYVELANDLEINKAVTYLRQKDYNQAVEILKVLEKKDSRVKSAAATNLSALYYMGKDFAQASSYADIAVNSDRYNPAALTNKGNTVFANGDYEKAAEFYKEALRNDSSCTEALYNIGLTYEKLNRLDEALDCFLKLHAILRN
Consider B2, for which the binding result in assay [2] and in assay [3] was “binds” each time.

B3: EGFP-IFT88 (full-length) (protein, UniProt Q13099 1-824)
chain: MMQNVHLAPETDEDDLYSGYNDYNPIYDIEELENDAAFQQAVRTSHGRRPPITAKISSTAVTRPIATGYGSKTSLASSIGRPMTGAIQDGVTRPMTAVRAAGFTKAALRGSAFDPLSQSRGPASPLEAKKKDSPEEKIKQLEKEVNELVEESCIANSCGDLKLALEKAKDAGRKERVLVRQREQVTTPENINLDLTYSVLFNLASQYSVNEMYAEALNTYQVIVKNKMFSNAGILKMNMGNIYLKQRNYSKAIKFYRMALDQVPSVNKQMRIKIMQNIGVTFIQAGQYSDAINSYEHIMSMAPNLKAGYNLTICYFAIGDREKMKKAFQKLITVPLEIDEDKYISPSDDPHTNLVTEAIKNDHLRQMERERKAMAEKYIMTSAKLIAPVIETSFAAGYDWCVEVVKASQYVELANDLEINKAVTYLRQKDYNQAVEILKVLEKKDSRVKSAAATNLSALYYMGKDFAQASSYADIAVNSDRYNPAALTNKGNTVFANGDYEKAAEFYKEALRNDSSCTEALYNIGLTYEKLNRLDEALDCFLKLHAILRNSAEVLYQIANIYELMENPSQAIEWLMQVVSVIPTDPQVLSKLGELYDREGDKSQAFQYYYESYRYFPCNIEVIEWLGAYYIDTQFWEKAIQYFERASLIQPTQVKWQLMVASCFRRSGNYQKALDTYKDTHRKFPENVECLRFLVRLCTDLGLKDAQEYARKLKRLEKMKEIREQRIKSGRDGSGGSRGKREGSASGDSGQNYSASSKGERLSARLRALPGTNEPYESSSNKEIDASYVDPLGPQIERPKTAAKKRIDEDDFADEELGDDLLPE
Take B3: the binding entry is recorded as “binds weakly” in assay [4], “binds” in assay [2] and “binds” in assay [3].

The record behind these values is PMC5073310.
